Values from PubChem BioAssay AID1259254 (NCATS, 2017)
Test: 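Gene knock-downs that lead to re-replication, shown by excess G2 DNA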 (primary screen). Cell system: human HCT116 colorectal cancer cells. Knock-down reagent: single siRNA against human genes. Time to read-out: 3 days. Detection: 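Nuclei stained with Hoechst and imaged; cell-cycle phase assigned by DNA content; G2 share scaled per plate, non-targeting siRNA 0%, GMNN siRNA 100%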. Scale: G2 robust z-score and G2 cells, % of GMNN control: higher = more G2 cells, more excess DNA replication; raw share of cells in G2: higher = larger share of cells with G2 DNA content. Rule for the call: 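An siRNA counts as active if its G2 robust z-score lies at least 5 MADs above the screen median; here such calls match roughly 38% of GMNN control or more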.
Shown is one part, drawn at random, of about 59,000 reagents. Of all reagents, about 1,550 (2.6%) got an active call. 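G2 share is only a proxy for re-replication; each gene was hit by three separate siRNAs, and active genes were retested.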 The raw values are shown without normalisation. No sequences are given here. Not given: the amount of reagent.

| gene symbol | PubChem SID | G2 robust z-score | G2 cells, % of GMNN control | raw share of cells in G2 (%) | outcome |
| --- | --- | --- | --- | --- | --- |
| MOXD1 | SID160737428 | -0.944 | -3.68 | 4.5 | inactive |
| MOXD1 | SID160737429 | 4.45 | 34.3 | 15.6 | inactive |
| MOXD1 | SID160737430 | -0.76 | -2.38 | 3.21 | inactive |
| LGALS3 | SID160776583 | -1.16 | -5.2 | 1.48 | inactive |
| LGALS3 | SID160776584 | -0.395 | 0.185 | 5.54 | inactive |
| LGALS3 | SID160776585 | -0.472 | -0.352 | 5.22 | inactive |
| IFTAP | SID160755751 | -0.956 | -3.76 | 2.58 | inactive |
| IFTAP | SID160755752 | 0.0081 | 3.02 | 4.23 | inactive |
| IFTAP | SID160755753 | -0.989 | -3.99 | 0.652 | inactive |
| FAM204A | SID160747217 | 0.724 | 8.06 | 8.09 | inactive |
| FAM204A | SID160747218 | 1.74 | 15.2 | 11.4 | inactive |
| FAM204A | SID160747219 | 0.109 | 3.73 | 3.68 | inactive |
| AGFG2 | SID160731087 | 1.17 | 11.2 | 9.96 | inactive |
| AGFG2 | SID160775306 | 2.03 | 17.2 | 11.3 | inactive |
| AGFG2 | SID160775309 | -0.686 | -1.86 | 3.52 | inactive |
| DEMA1 | SID160764304 | 0.807 | 8.64 | 6.96 | inactive |
| DEMA1 | SID160764305 | 0.238 | 4.64 | 5.29 | inactive |
| DEMA1 | SID160764306 | 0.173 | 4.18 | 5.87 | inactive |
| DCAF12L1 | SID160757661 | 0.707 | 7.94 | 7.17 | inactive |
| DCAF12L1 | SID160757662 | -0.183 | 1.68 | 3.63 | inactive |
| DCAF12L1 | SID160757663 | 0.132 | 3.89 | 3.99 | inactive |
| GNAS | SID160772028 | 4.42 | 34.1 | 17.6 | inactive |
| GNAS | SID160772039 | 0.138 | 3.94 | 5.06 | inactive |
| GNAS | SID160772048 | 0.0645 | 3.42 | 6.56 | inactive |
| LOC728903 (retired record) | SID160726861 | -0.464 | -0.297 | 2.99 | inactive |
| LOC728903 (retired record) | SID160772260 | -0.972 | -3.87 | 2.45 | inactive |
| LOC728903 (retired record) | SID160772261 | 0.307 | 5.12 | 4.97 | inactive |
| ACTBL2 | SID160764870 | 0.894 | 9.26 | 7.17 | inactive |
| ACTBL2 | SID160764871 | 4.1 | 31.8 | 17.2 | inactive |
| ACTBL2 | SID160764872 | -0.521 | -0.696 | 3.91 | inactive |
